Assay [1] addresses human GARP (antigen, construct not stated) (human) (UniProt Q14392). Briefly: Gator label-free kinetics.
Assay [2] has the same target. Briefly: summary of Example 6.
The target in assay [3] is T1, membrane-bound GARP-LTGFβ complex (human GARP with latent TGFβ1) (human) (UniProt Q14392+P01137). The experiment in a line: flow cytometry on human platelets (drawn table).
Assay [4] concerns the target T1, membrane-bound GARP-LTGFβ complex (human GARP with latent TGFβ1) (human). Briefly: flow cytometry on 293 cells transfected with hGARP and TGFβ1 (GARP-LAP complex).

By UniProt entry, the sequences of proteins in these tests, tags left out. Where a name states a change or a piece, a line headed by the entry shows the natural chain unless it says otherwise. Residues count along the entry.
UniProt Q14392, residues 20-627: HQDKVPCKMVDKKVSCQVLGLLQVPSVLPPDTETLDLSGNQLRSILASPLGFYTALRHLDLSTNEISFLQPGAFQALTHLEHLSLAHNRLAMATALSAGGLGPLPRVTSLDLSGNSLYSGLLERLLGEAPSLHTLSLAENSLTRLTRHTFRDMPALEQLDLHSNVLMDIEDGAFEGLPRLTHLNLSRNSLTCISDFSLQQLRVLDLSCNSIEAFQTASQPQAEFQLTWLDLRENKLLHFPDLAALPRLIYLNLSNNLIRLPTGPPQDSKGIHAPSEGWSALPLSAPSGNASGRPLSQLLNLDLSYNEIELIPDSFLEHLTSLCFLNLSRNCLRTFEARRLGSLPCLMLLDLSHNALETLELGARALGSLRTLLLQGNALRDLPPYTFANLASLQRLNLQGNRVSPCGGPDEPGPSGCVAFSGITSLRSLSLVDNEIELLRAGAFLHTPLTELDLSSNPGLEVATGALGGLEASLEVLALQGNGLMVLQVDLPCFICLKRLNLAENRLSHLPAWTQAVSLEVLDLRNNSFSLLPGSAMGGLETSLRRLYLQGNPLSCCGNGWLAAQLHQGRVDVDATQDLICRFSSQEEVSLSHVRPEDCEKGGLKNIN
UniProt P01137: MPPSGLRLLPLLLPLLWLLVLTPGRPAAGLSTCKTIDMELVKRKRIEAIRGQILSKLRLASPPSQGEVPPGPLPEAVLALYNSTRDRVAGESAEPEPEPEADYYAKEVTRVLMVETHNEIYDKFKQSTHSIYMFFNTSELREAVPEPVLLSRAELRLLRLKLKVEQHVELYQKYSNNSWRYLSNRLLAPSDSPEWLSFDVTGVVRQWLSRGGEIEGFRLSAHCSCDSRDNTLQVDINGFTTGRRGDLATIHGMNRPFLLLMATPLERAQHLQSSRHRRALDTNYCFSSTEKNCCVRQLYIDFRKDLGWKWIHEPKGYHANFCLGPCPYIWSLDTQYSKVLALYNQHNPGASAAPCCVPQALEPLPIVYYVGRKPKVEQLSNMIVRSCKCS

Results are given in words; binding and its absence hold for the method and conditions named. Some binding calls cover weakened binding; strength is not graded here.

B1: huPIIO-1VH1VL1 (antibody, V domains shown)
VH: QVQLQESGPGLVKPSQTLSLTCTVSGYSITSDYAWNWIRQFPGNKLEWMGYISYSGSTSYTPSLKSRVTISRDTSKNHFSLKLSSVTAADTAVYYCAKSGGDYYGSSSYWYFDVWGQGTMVTVSS
VL: DIVLTQSPSSLAVSLGERATMNCKSSQSLLNSRSQKNYLAWYQQKPGQPPKLLIYGASTRGSGVPDRFSGSGSGTDFTLTISSLQAEDVAVYYCQNDHSYPFTFGQGTKLEIKR
Consider B1, for which, in assay [1], the binding result is “binds”.

B2: huPIIO-1VH1VL2 (antibody, V domains shown)
VH: QVQLQESGPGLVKPSQTLSLTCTVSGYSITSDYAWNWIRQFPGNKLEWMGYISYSGSTSYTPSLKSRVTISRDTSKNHFSLKLSSVTAADTAVYYCAKSGGDYYGSSSYWYFDVWGQGTMVTVSS
VL: DIVLTQSPSSLAVSLGERVTMNCKSSQSLLNSRSQKNYLAWYQQKPGQPPKLLIYGASTRGSGVPDRFSGSGSGTDFTLTISSVQAEDVAVYYCQNDHSYPFTFGQGTKLEIKR
Regarding B2, the binding result in assay [2] and in assay [1] was “binds” each time.

B3: huPIIO-1VH2VL1 (antibody, V domains shown)
VH: QVQLQESGPGLVKPSQTLSLTCTVSGYSITSDYAWNWIRQFPGNKLEWMGYISYSGSTSYTPSLKSRITISRDTSKNHFFLKLSSVTAADTAVYYCAKSGGDYYGSSSYWYFDVWGQGTMVTVSS
VL: DIVLTQSPSSLAVSLGERATMNCKSSQSLLNSRSQKNYLAWYQQKPGQPPKLLIYGASTRGSGVPDRFSGSGSGTDFTLTISSLQAEDVAVYYCQNDHSYPFTFGQGTKLEIKR
As for B3, the binding result in assay [1] was “binds”.

B4: 5C5 (antibody, V domains shown)
VH: EVKLVESGGGSVKPGGSLKLSCAASGFTFSNYVMSWVRQTPEKRLEWVATISSGGSYTYYPDSVKGRLTISRDNAKNTLYLQMSSLRSEDTAMYYCARGYDNGDYVMDYWGQGTSVTVSS
VL: DIVLTQSPASLAVSLGQRATISCRASESVDTYGNSFMHWYQQIPGQPPKVLIYRASNLESGIPARFSGSGSRTDFTLTINPVEAGDVATYYCQQTNEHPPTFGGGTKLEIK
Consider B4, for which the binding result in assay [3] and in assay [4] was “binds” throughout.

Values taken from US20240425571A1, “GLYCOPROTEIN A REPETITIONS PREDOMINANT (GARP)-BINDING ANTIBODIES AND USES THEREOF” (OHIO STATE INNOVATION FOUNDATION, priority 2021, published 2024).
